Earlier results as cited in paper PMC9540496 (Clinical Pharmacology and Therapeutics, 2022).

Conditions: P‐gp interaction, dabigatran labeling; cited from earlier work

In the case of `CCCCc1oc2ccccc2c1C(=O)c1cc(I)c(OCCN(CC)CC)c(I)c1` [amiodarone], the “increase of dabigatran exposures” value is listed as 50–60%.
